Values of other authors in patent publication US11666656B2, “Polymeric conjugates and uses thereof” (Ramot at Tel-Aviv University Ltd., priority 2016, dated 2023).
For at least one compound, name, drawing or mass did not settle the structure.

System: metastatic melanoma and BRAF mutation
Settings: compared to dacarbazine, first-line; cited from earlier work

CCCS(=O)(=O)Nc1ccc(F)c(C(=O)c2c[nH]c3ncc(-c4ccc(Cl)cc4)cc23)c1F [vemurafenib]
reduction of the risk of death: 63%
